Reference: doi:10.1101/487702
Results are given in words; binding and its absence hold for the method and conditions named. In cells and extracts the contact can be indirect. Some entries that bind do so weakly or less than the wild type.

The chains behind the UniProt entries cited, without tags or fusion partners.
UniProt P35998: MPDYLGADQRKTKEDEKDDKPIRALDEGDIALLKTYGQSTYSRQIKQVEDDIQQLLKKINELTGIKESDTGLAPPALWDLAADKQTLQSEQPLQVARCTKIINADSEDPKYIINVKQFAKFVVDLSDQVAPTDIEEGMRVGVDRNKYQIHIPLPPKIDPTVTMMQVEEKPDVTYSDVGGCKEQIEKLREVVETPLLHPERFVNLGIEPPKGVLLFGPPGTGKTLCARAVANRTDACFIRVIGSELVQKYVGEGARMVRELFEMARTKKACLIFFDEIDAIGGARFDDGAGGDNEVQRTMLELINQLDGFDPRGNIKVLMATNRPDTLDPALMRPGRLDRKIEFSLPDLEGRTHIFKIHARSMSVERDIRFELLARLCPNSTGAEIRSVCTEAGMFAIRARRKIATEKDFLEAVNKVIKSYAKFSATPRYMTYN
UniProt O00487: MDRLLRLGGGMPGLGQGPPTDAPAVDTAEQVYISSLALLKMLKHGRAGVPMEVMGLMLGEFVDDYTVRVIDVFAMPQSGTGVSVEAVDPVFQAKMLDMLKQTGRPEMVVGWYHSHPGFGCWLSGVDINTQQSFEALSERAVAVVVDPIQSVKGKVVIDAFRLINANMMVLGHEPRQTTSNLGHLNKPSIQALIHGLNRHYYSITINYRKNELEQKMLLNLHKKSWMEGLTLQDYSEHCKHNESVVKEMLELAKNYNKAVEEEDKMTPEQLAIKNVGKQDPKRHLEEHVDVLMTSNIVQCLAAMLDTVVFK

Each substance was assayed against Rpt1/PSMC2 (human (endogenous in HEK293A)) (UniProt P35998) (assay: co-IP).

binding, binds:
Rpn11 (unmodified, endogenous) (from UniProt O00487 1-310)
Rpn11-eGFP (from UniProt O00487 1-310)
Rpn11-mEos (from UniProt O00487 1-310)
